Patent US8158621B2, “Methods of treating or preventing autoimmune diseases with 2,4-pyrimidinediamine compounds” (Rigel Pharmaceuticals, Inc., priority 2002, dated 2012)
pIC50: −log10 of the molar value.

Test system: Human Jurkat T-cells (clone N)
Experiment: Jurkat T-cell activation (anti-TCR, CD69 upregulation)
Type: cell-based
Method: The screening process took place over three days.
On the first day of the screen, cultured cells were spun down on a centrifuge (1000 rpm, 5 minutes) and resuspended at 3.0×10^5 cells/ml in RPMI+5% FBS. On the second day of the screen, cells were spun down at 1000 rpm for 5 minutes and resuspended in RPMI+5% FBS at 1.3×10^5 cells/ml. 85 μl of this cell suspension were added to the wells of U-bottom 96 well plates (Corning) 85 μl of compound or diluted RPMI+5% FBS (as a control) only was added to each well and incubated at 37° C. for 1 hour. The cells were then stimulated with anti-TCR (C305) at: 500 ng/ml by adding a 8× solution in 25 μl to the plated cells. The cells were then incubated at 37° C. for 20 hrs.
On the third day of the screen, the plates were spun at 2500 RPM for 1 minute on a Beckman GS-6R centrifuge, and the medium was then removed. 50 μl staining solution (1:100 dilution of anti-CD69-APC antibody (Becton Dickenson) in PBS+2% FBS) was then added to each well, followed by incubation of the plates 4 degrees for 20 minutes in the dark. 150 μl of wash buffer (PBS+2% FBS) was then added to each well, and the plates were spun at 3000 RPM for 1 minute. The supernatant was again removed, and the pellet was resuspended by vortexing gently. […] Cells from the plates were read using a flow cytometer coupled to an automated liquid handling system. […]

With COc1ccc(Nc2nc(Cl)ncc2F)c(OC)n1 [Compound R926889] the pIC50 was under 5.00.
